Reference: patent US7994334B2, “Fungicide pyridinyloxy substituted phenylamidine derivatives” (Bayer Cropscience AG, priority 2005, dated 2011)
Some of these results come from one statement about several compounds together. For some of these results: At least one structure is not confirmed: it was looked up by name or label, or the drawing left a doubt.

Key:
Sphaerotheca fuliginea = experiment: In vivo protective test on Sphaerotheca fuliginea (cucumbers); conditions: 100 ppm of active ingredient, evaluated 7 days after inoculation
[1] = system: Erysiphe graminis f.sp. hordei; experiment: In vivo preventive test on Erysiphe graminis (powdery mildew on barley); conditions: 1000 ppm of active ingredient, evaluated 7 days after inoculation
[2] = system: Puccinia recondite f. Sp. tritici (Wheat Brown Rust); experiment: In vivo preventive test on Puccinia recondita (wheat brown rust); conditions: 1000 ppm of active ingredient, evaluated 10 days after inoculation
Alternaria solani = experiment: In vivo protective test on Alternaria solani (leaf spot of tomato); conditions: 500 ppm of active ingredient, evaluated 7 days after inoculation
Podosphaera leucotricha = experiment: In vivo protective test on Podosphaera leucotricha (apples); conditions: 100 ppm of active ingredient, evaluated 10 days after inoculation
Uromyces appendiculatus = experiment: In vivo protective test on Uromyces appendiculatus (beans); conditions: 10 ppm of active ingredient, evaluated 10 days after inoculation

Compound | efficacy (Sphaerotheca fuliginea) | efficacy [1] | efficacy [2] | efficacy (Alternaria solani) | efficacy (Podosphaera leucotricha) | efficacy (Uromyces appendiculatus)
CCc1nccc(Oc2cc(C)c(N=CN3CCCCC3)cc2C)c1Cl [Example 75] | ≥ 70% | ≥ 70% | ≥ 70% |  |  | 
CCN(C)C=Nc1ccc(Oc2cc(C(F)(F)F)cc(Cl)n2)cc1C [Example 4] |  | ≥ 70% | ≥ 70% |  |  | 
Cc1cc(Oc2cc(C(F)(F)F)cc(Cl)n2)c(C)cc1N=CN(C)C(C)C [Example 12] | ≥ 70% | ≥ 70% | ≥ 70% | ≥ 70% | ≥ 70% | 
C=CCN(C)C=Nc1cc(C)c(Oc2ccnc(Cl)c2)cc1C [Example 81] |  |  | ≥ 70% |  |  | 
CCN(C)C=Nc1cc(C)c(Oc2ccc(C(F)(F)F)c(Cl)n2)cc1C [Example 11] |  | ≥ 70% | ≥ 70% |  |  | 
CCN(C)C=Nc1cc(C)c(Oc2cccc(C(F)(F)F)n2)cc1C [Example 61] |  |  | ≥ 70% |  |  | 
Cc1cc(Oc2cc(Cl)cc(C(C)C)n2)c(C)cc1N=CN(C)C(C)C [Example 34] | ≥ 70% | ≥ 70% | ≥ 70% |  | ≥ 70% | 
CCN(C)C=Nc1ccc(Oc2ccc(C(F)(F)F)cn2)cc1C [Example 9] |  |  | ≥ 70% |  |  | 
CCc1nccc(Oc2cc(C)c(N=CN(C)CC)cc2C)c1Cl [Example 68, N-Ethyl-N-methyl-N′-[4-(2-ethyl-3-chloropyridyl-4-oxy)-2,5-xylyl]form-amidine] | ≥ 70% | ≥ 70% | ≥ 70% |  |  | 
CCCN(C)C=Nc1cc(C)c(Oc2cccc(Br)n2)cc1C [Example 58] |  |  | ≥ 70% |  |  | 
CCN(C)C=Nc1cc(C)c(Oc2cccnc2C)cc1C [Example 66] | ≥ 70% | ≥ 70% | ≥ 70% |  | ≥ 70% | 
CCN(C)C=Nc1cc(C(C)(C)C)c(Oc2cc(C(F)(F)F)cc(Cl)n2)cc1C [Example 22] | ≥ 70% |  |  |  |  | 
Cc1cc(Oc2ccnc(Cl)c2)c(C)cc1N=CN1CCCCC1 [Example 70] |  | ≥ 70% | ≥ 70% |  |  | 
Cc1cc(Oc2cc(C(F)(F)F)cc(Cl)n2)ccc1N=CN(C)C(C)C [Example 7] |  | ≥ 70% | ≥ 70% |  |  | 
Cc1cc(Oc2ccc(C)c(Cl)n2)c(C)cc1N=CN1CCCCC1 [Example 50] |  |  | ≥ 70% |  |  | ≥ 70%
Cc1cc(Oc2cccc(Br)n2)c(C)cc1N=CN1CCCC1 [Example 60] |  |  | ≥ 70% |  |  | 
CCN(C)C=Nc1cc(C)c(Oc2ccnc(Cl)c2)cc1C [Example 69] | ≥ 70% | ≥ 70% | ≥ 70% | ≥ 70% | ≥ 70% | 
Cc1cc(Oc2ncc(C(F)(F)F)cc2Cl)c(C)cc1N=CN(C)C(C)C [Example 43] |  | ≥ 70% | ≥ 70% |  |  | 
CCc1cc(Cl)cc(Oc2cc(C)c(N=CN(C)CC)cc2C)n1 [Example 48] | ≥ 70% |  |  | ≥ 70% |  | ≥ 70%
Cc1cc(Oc2cccc(Br)n2)c(C)cc1N=CN1CCCCC1 [Example 59] |  |  | ≥ 70% |  |  | 
C=CCN(C)C=Nc1cc(C)c(Oc2ccnc(CC)c2Cl)cc1C [Example 73] | ≥ 70% |  |  |  | ≥ 70% | 
CCN(C)C=Nc1cc(C)c(Oc2cc(Cl)cc(C(C)C)n2)cc1C [Example 33] | ≥ 70% | ≥ 70% | ≥ 70% |  |  | 
CCN(C)C=Nc1cc(C)c(Oc2ccc(C#N)cn2)cc1C [Example 35] |  | ≥ 70% | ≥ 70% |  |  | 
CCN(C)C=Nc1cc(C)c(Oc2ncc(C(F)(F)F)cc2Cl)cc1C [Example 44] |  | ≥ 70% | ≥ 70% |  |  | 

Compound | efficacy (Sphaerotheca fuliginea) | efficacy [1] | efficacy [2] | efficacy (Alternaria solani) | efficacy (Podosphaera leucotricha) | efficacy (Uromyces appendiculatus)
Cc1cc(Oc2cccc(Cl)n2)c(C)cc1N=CN1CCCCC1 [Example 47] |  | ≥ 70% | ≥ 70% |  |  | 
CCN(C)C=Nc1cc(C)c(Oc2ncc(Cl)cc2Cl)cc1C [Example 28] | ≥ 70% | ≥ 70% | ≥ 70% |  | ≥ 70% | 
CCCN(C)C=Nc1cc(C)c(Oc2cc(Cl)cc(CC)n2)cc1C [Example 42] | ≥ 70% | ≥ 70% | ≥ 70% |  |  | 
Cc1cc(Oc2ncc(Cl)cc2Cl)c(C)cc1N=CN(C)C(C)C [Example 32] |  |  | ≥ 70% |  |  | 
CCN(C=Nc1cc(C)c(Oc2cc(C(F)(F)F)cc(Cl)n2)cc1C)CC [Example 18] |  | ≥ 70% | ≥ 70% |  |  | 
CCCN(C)C=Nc1cc(C)c(Oc2ccnc(Cl)c2)cc1C [Example 72] |  | ≥ 70% |  |  |  | 
Cc1cc(Oc2ccc(C(F)(F)F)c(Cl)n2)c(C)cc1N=CN(C)C(C)C [Example 13] | ≥ 70% |  | ≥ 70% |  | ≥ 70% | 
CCN(C)C=Nc1ccc(Oc2cc(Cl)ccn2)cc1C [Example 3] |  | ≥ 70% | ≥ 70% |  |  | 
CCN(C)C=Nc1cc(C)c(Oc2ccc(C(F)(F)F)cn2)cc1C [Example 10] |  | ≥ 70% | ≥ 70% |  |  | 
CCCN(C)C=Nc1cc(C)c(Oc2ccnc(CC)c2Cl)cc1C [Example 74] | ≥ 70% | ≥ 70% | ≥ 70% |  | ≥ 70% | 
Cc1cc(Oc2ccnc(Cl)c2)c(C)cc1N=CN1CCCC1 [Example 71] |  |  | ≥ 70% |  |  | 
CCN(C)C=Nc1cc(C)c(Oc2cncc(Cl)c2)cc1C [Example 64, N-Ethyl-N-methyl-N′-[4-(3-chlorpyridyl-5-oxy)-2,5-xylyl]formamidine] |  | ≥ 70% | ≥ 70% |  |  | 
CCN(C)C=Nc1cc(C)c(Oc2cccc(Cl)n2)cc1C [Example 26] | ≥ 70% | ≥ 70% | ≥ 70% |  |  | 
CCN(C)C=Nc1cc(C)c(Oc2cccc(Br)n2)cc1C [Example 57] | ≥ 70% |  | ≥ 70% |  |  | ≥ 70%
CCN(C)C=Nc1cc(C)c(Oc2cc(Cl)cc(C)n2)cc1C [Example 23] | ≥ 70% | ≥ 70% | ≥ 70% | ≥ 70% | ≥ 70% | 
CCCN(C)C=Nc1cc(C)c(Oc2cc(Cl)cc(C(C)C)n2)cc1C [Example 54] | ≥ 70% |  |  |  |  | ≥ 70%
Cc1cc(Oc2cc(Cl)cc(C(C)C)n2)c(C)cc1N=CN1CCCC1 [Example 55] | ≥ 70% |  |  |  |  | ≥ 70%
Cc1cc(Oc2cc(C(F)(F)F)cc(Cl)n2)c(C(C)C)cc1N=CN(C)C(C)C [Example 21] | ≥ 70% |  |  |  |  | 
CCN(C)C=Nc1ccc(Oc2ccc(Cl)cn2)cc1C [Example 5] |  |  | ≥ 70% |  |  | 
CCCN(C)C=Nc1cc(C)c(Oc2ncc(Cl)cc2Cl)cc1C [Example 29] |  | ≥ 70% | ≥ 70% |  |  | 
CCN(C)C=Nc1cc(C)c(Oc2cc(C(F)(F)F)ccn2)cc1C [Example 27] |  | ≥ 70% | ≥ 70% |  |  | 
CCN(C)C=Nc1cc(C)c(Oc2ccc(I)cn2)cc1C [Example 14] |  | ≥ 70% | ≥ 70% |  |  | 
CCc1nccc(Oc2cc(C)c(N=CN3CCCC3)cc2C)c1Cl [Example 76] |  | ≥ 70% | ≥ 70% |  |  | 
CCCN(C)C=Nc1cc(C)c(Oc2cc(C(F)(F)F)cc(Cl)n2)cc1C [Example 19] |  | ≥ 70% | ≥ 70% |  |  | 
